The test can be described thus: qHTS Assay for Modulators of Lamin A Splicing. The settings on record: HeLa LMNA splicing GFP/RFP minigene ratio, 48 h. The method in brief:
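S3 HeLa stable clones carrying a lamin A-EGFP splicing minigene plus DsRed2 were seeded at 600 cells/well in Opti-MEM with 2% FBS, pin-dosed and incubated 48 h at 37°C. Acumen cytometry (488 nm) gave the GFP/RFP total-intensity ratio.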
Background: Quantitative high-throughput screening tests each substance at several concentrations.

[1] abbreviates: measured here: RFP viability control channel.
Setting [2] is: measured here: GFP splicing reporter channel.

The values that follow come from PubChem BioAssay AID1487 (National Center for Advancing Translational Sciences (NCATS), 2009).

This is one part of the list. Further columns of the screen follow, without active or inactive calls. The list favours compounds with an active or inconclusive main result. Words in brackets tell the shape of the fitted curve; partial curves, single points and poor fits give uncertain potencies.

On to `S=C(NCCCN1CCOCC1)Nc1ccc(Nc2ccccc2)cc1`, for which, under setting [1], the AC50 was 22.4 µM [rising, single point].
Turning to `CCSc1nc2sc3c(c2c(=O)n1C1CCCCC1)CCN(C)C3`, the AC50 is 14.1 µM [rising, single point] under setting [2] and 22.4 µM [rising, partial curve] under setting [1].
With `O=C(Nc1ccc2c(c1)N(C1CCCC1)C(=O)c1ccccc1S2)c1cccc(F)c1`, under setting [2], the AC50 is 17.8 µM [falling, partial curve, poor fit].
Take `CC(C)Oc1ccc(CNC(=O)CCn2c(=O)c3cccn3c3ccc(F)cc32)cc1`: the AC50 is 0.112 µM [rising, full curve, poor fit] under setting [2] and 0.112 µM [rising, full curve] under setting [1].
With `COc1ccc(COc2cc(-c3cccc(OC)c3)nc3ccc(NC(=O)c4ccccc4)cc23)cc1`, under setting [2], the AC50 is 1.58 µM [falling, partial curve, poor fit].
As for `COc1cc(/C=N/NC(=S)Nc2cccc(C(=O)O)c2)cc(OC)c1OC`, the AC50 under setting [1] is 0.708 µM [falling, full curve, poor fit].
As to `CC(C)c1ccc2c(c1)C1(NN=C(c3ccccc3)S1)C(=O)N2` (centres undefined), the AC50 under setting [1] is 5.01 µM [rising, partial curve].
On to `O=C(NCCc1csc(-c2cccc(F)c2)n1)c1ccc(Br)o1`, for which the AC50 runs as follows: under setting [2], 3.55 µM [falling, partial curve]; under setting [1], 0.00355 µM [falling, full curve, poor fit].
For `CCCCC12CN3CC(C)(CN(C1)C31C(=O)N(C)c3ccc(C)cc31)C2=O` (centres undefined), the AC50 under setting [1] is 14.1 µM [rising, partial curve].
On the same count and under the same terms, the value for `COc1c(N2CCN(C(=S)NCc3ccccc3)C(C)C2)c(F)cc2c(=O)c(C(=O)O)cn(C3CC3)c12` (centres undefined) was 14.1 µM [rising, single point]; that for `COc1ccc2[nH]cc(C(=O)CNc3nc(C)cs3)c2c1` was 12.6 µM [rising, single point]; that for `Clc1ccc(-c2cn3c(n2)CCC3)cc1` was 15.8 µM [rising, single point].
On to `CCOC(=O)c1c(C)c(C(=O)N2CCN(c3cccc(Cl)c3)CC2)c(C)n1C`, for which the AC50 under setting [2] is 25.1 µM [rising, single point] and the AC50 under setting [1] was 35.5 µM [rising, single point].
Regarding `Cc1cc(=O)[nH]c(SCC(=O)c2ccc(C)c(C)c2)n1`, the concentration at half-maximal activity (AC50) runs as follows: under setting [2], 35.5 µM [rising, single point]; under setting [1], 35.5 µM [rising, single point].
Consider `Cc1ccc(C)c(OCCn2cc(/C=C(/C#N)C(=O)NCC3CCCO3)c3ccccc32)c1` (centres undefined), for which the half-maximal activity concentration (AC50) under setting [1] was 35.5 µM [rising, single point].
Regarding `Cc1ccc(C(=O)CC(=O)COc2ccc(Cl)cc2C)cc1`, under setting [1], the AC50 was 35.5 µM [rising, single point].
In the case of `Cc1ccc(S(=O)(=O)Nc2nc(C)cc(N/N=C/c3ccc(O)cc3)n2)cc1`, under setting [1], the AC50 is 25.1 µM [rising, single point].
With `Cc1ccc(C2CC(c3cccs3)=NN2C(=O)CSC2=NN3CCCC(=O)N=C3S2)cc1` (centres undefined), the AC50 under setting [1] was 12.6 µM [rising, partial curve, poor fit].
Consider `COc1ccc(C[C@H](N)C(=O)N[C@@H]2[C@H](O)[C@H](n3cnc4c(N(C)C)ncnc43)O[C@@H]2CO)cc1`, for which the AC50 under setting [2] is 0.224 µM [falling, full curve] and the AC50 under setting [1] was 1.58 µM [falling, full curve].
Turning to `CCCC(=O)Nc1nc(-c2ccccc2)ns1`, the half-maximal activity concentration (AC50) under setting [2] is 17.8 µM [rising, single point] and the AC50 under setting [1] is 25.1 µM [rising, single point].
`O=C(N/N=C\c1ccc(Cl)s1)c1cccs1`: the AC50 under setting [1] is 31.6 µM [rising, single point].
For `Cc1ccc(NCC(=O)N/N=C/c2ccc(OC(=O)c3ccco3)cc2)cc1`, under setting [2], the AC50 is 31.6 µM [rising, single point].
Still for that read-out and setting: the result for `CC(=O)NC1=NN(C(C)=O)C2(CCCC2)S1` reads 0.0158 µM [falling, full curve, poor fit].
`O=C(Cc1ccccc1F)NCC1(N2CCOCC2)CCCCC1`: the AC50 under setting [2] is 0.126 µM [rising, partial curve, poor fit] and the AC50 under setting [1] is 2.82 µM [rising, partial curve, poor fit].
Consider `CC(C)(C)N/N=C/c1cc(Cl)cc([N+](=O)[O-])c1O`, for which the AC50 under setting [1] is 12.6 µM [rising, single point].
Regarding `Cc1ccc(Cl)cc1NC(=O)COCc1cc(-c2ccco2)on1`, the AC50 under setting [1] is 0.02 µM [falling, full curve, poor fit].
As to `CCCC(c1nnnn1Cc1ccco1)N1CCN(c2cc(Cl)ccc2C)CC1` (centres undefined), the half-maximal activity concentration (AC50) under setting [2] was 35.5 µM [rising, single point].
With `O=C1c2cccc3c(O)ccc(c23)C(=O)N1Cc1ccccc1`, the AC50 is, setting by setting: under setting [2], 7.94 µM [falling, partial curve]; under setting [1], 10 µM [falling, partial curve].
With `CCCN(Cc1nc(-c2ccc(Cl)cc2)no1)CC1CCCO1` (centres undefined), the AC50 under setting [1] is 0.501 µM [rising, partial curve, poor fit].
As to `O=C(CC(=O)c1ccccc1O)c1cccc(F)c1`, under setting [1], the half-maximal activity concentration (AC50) is 10 µM [rising, partial curve].
The same measure, in the same setting: the result for `CCn1cc(CN2CCN(CCc3ccccc3)C(CCO)C2)c(C)n1` (centres undefined) reads 0.0178 µM [falling, full curve, poor fit].
`CC(C)NC(=O)CCn1nc(-c2ccc(Cl)cc2)c2ccccc2c1=O`: the AC50 by setting is: under setting [2], 0.112 µM [rising, full curve]; under setting [1], 0.0631 µM [rising, full curve, poor fit].
As for `Cc1ccnc(N2C(=O)c3cccc4c([N+](=O)[O-])ccc(c34)C2=O)c1`, the AC50 runs as follows: under setting [2], 31.6 µM [falling, single point]; under setting [1], 35.5 µM [falling, single point].
With `CC(C)C(=O)NC(=S)Nc1ccc(S(=O)(=O)N(C)Cc2ccccc2)cc1`, the AC50 under setting [1] is 20 µM [rising, single point].
In the case of `Cc1ccc(-c2noc(CCC(=O)NCCN3CCN(Cc4ccccc4)CC3)n2)cc1`, the AC50 is, setting by setting: under setting [2], 11.2 µM [rising, single point]; under setting [1], 14.1 µM [rising, single point].
As for `O=Cc1ccnc(-c2ccc(OC(=O)c3ccco3)cc2)n1`, the AC50 under setting [2] is 0.0447 µM [falling, full curve, poor fit].
For the compound `Cc1ccc(S(=O)(=O)NCCC(c2ccccc2)c2ccccc2)cc1C(=O)O`, the AC50 under setting [1] was 0.00316 µM [falling, full curve, poor fit].
For `O=C(Nc1ccc(F)cc1)c1nn(-c2ccccc2)c(=O)cc1Cl`, the AC50 runs as follows: under setting [2], 17.8 µM [falling, single point]; under setting [1], 0.708 µM [falling, single point].
`O=C(Nc1ccc(S(=O)(=O)Nc2ccc(Cl)cc2)cc1)C1CCCO1` (centres undefined): the AC50 under setting [1] is 11.2 µM [rising, partial curve].
Take `CCc1nc(Nc2ccncc2)c2oc3ccccc3c2n1`: the AC50 under setting [1] was 11.2 µM [rising, partial curve].
For the compound `CCC1(c2cccc(Cl)c2)NC(=O)N(Cc2cc(C(=O)OC)c(C)o2)C1=O` (centres undefined), under setting [1], the AC50 is 22.4 µM [rising, single point].
As to `O=[N+]([O-])c1ccc(Sc2n[nH]c(-c3ccco3)n2)nc1`, the AC50 under setting [2] was 0.0501 µM [rising, partial curve, poor fit].
`CCOC(=O)C1CCCN(S(=O)(=O)c2cc(OCC(=O)NC3CCCCC3)c(C)cc2Cl)C1` (centres undefined): the AC50 under setting [1] was 35.5 µM [rising, single point].
As to `CCc1ccc(CNc2ccc3c(c2)ncn3C)cc1`, the AC50 under setting [2] is 12.6 µM [rising, partial curve] and the AC50 under setting [1] was 15.8 µM [rising, partial curve].
Turning to `CC1CCN(C(=O)CSc2ccc(-c3ccc(F)cc3)nn2)CC1`, the AC50 reads like this: under setting [2], 25.1 µM [rising, single point]; under setting [1], 35.5 µM [rising, single point].
On to `Cc1ccc(C(=O)c2cc([N+](=O)[O-])ccc2N2CCCCC2)c(C)c1`, for which the AC50 under setting [2] was 0.224 µM [falling, full curve, poor fit].
With `CC(Cc1ccccc1)C(=O)N(C)Cc1cccnc1` (centres undefined), the AC50 under setting [1] is 0.398 µM [rising, full curve].
On to `COc1cc(NS(=O)(=O)c2ccc(N/C=C(\C=O)c3nc4cc(Cl)ccc4o3)cc2)nc(OC)n1`, for which the AC50 under setting [2] was 1.78 µM [rising, partial curve, poor fit].
Regarding `CCOC(=O)c1ccc(NC(=O)c2c(NCc3sccc3C)sc3c2CCCCC3)cc1`, the AC50 is 7.08 µM [rising, partial curve] under setting [2] and 25.1 µM [rising, partial curve, poor fit] under setting [1].
For the compound `Cc1ccc(NS(=O)(=O)c2cc([N+](=O)[O-])ccc2NNC(=S)Nc2cccc(Cl)c2)c(C)c1`, the AC50 runs as follows: under setting [2], 15.8 µM [falling, partial curve]; under setting [1], 35.5 µM [rising, single point].
`COc1cc(/C=c2\sc3n(c2=O)C(c2ccccc2)C(c2ccccc2)=NN=3)ccc1O` (centres undefined): the AC50 under setting [1] was 10 µM [rising, partial curve, poor fit].
Take `COc1ccc(Cn2nnnc2C(C(C)C)N(Cc2ccco2)Cc2cccs2)cc1` (centres undefined): the AC50 was 28.2 µM [rising, partial curve] under setting [2] and 35.5 µM [rising, single point] under setting [1].
As to `COc1ccc(-c2[nH]ncc2CN2CCN(c3ccccn3)CC2)c(OC)c1`, the AC50 under setting [1] is 12.6 µM [falling, partial curve, poor fit].
`Cc1c(NC(=O)C2CCCCC2)cc(C(=O)N2CCOCC2)cc1[N+](=O)[O-]`: the AC50 under setting [2] is 0.0224 µM [falling, full curve, poor fit].
Take `Cc1ccc2nc3c(c(Nc4ccc5c(c4)OCCO5)c2c1)CCC3`: the AC50 was 17.8 µM [rising, single point] under setting [2] and 15.8 µM [rising, partial curve] under setting [1].

The AC50 is the concentration at which the activity in the assay is half-maximal.
